This passage reports binding results from doi:10.1101/2021.06.29.450327.

The assay addresses T1, Meflin tagged with the hemagglutinin (HA) epitope, in mouse MSCs (UniProt Q6GU68).
T1 sequence: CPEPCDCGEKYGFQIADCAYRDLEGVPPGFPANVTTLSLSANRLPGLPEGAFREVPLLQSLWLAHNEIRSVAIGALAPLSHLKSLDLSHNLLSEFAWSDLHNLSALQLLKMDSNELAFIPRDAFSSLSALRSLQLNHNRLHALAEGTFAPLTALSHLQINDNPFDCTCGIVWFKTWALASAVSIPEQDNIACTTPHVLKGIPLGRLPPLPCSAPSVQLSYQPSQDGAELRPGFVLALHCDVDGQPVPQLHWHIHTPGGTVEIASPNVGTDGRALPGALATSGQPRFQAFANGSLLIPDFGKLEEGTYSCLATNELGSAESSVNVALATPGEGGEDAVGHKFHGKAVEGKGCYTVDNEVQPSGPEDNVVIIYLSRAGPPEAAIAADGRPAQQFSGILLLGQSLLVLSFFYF
Nature of the assay: affinity purification with mass spectrometry.

Results are given in words; binding and its absence hold for the method and conditions named. Binding seen in cells or lysates may run through a third protein. A yes stands for co-enrichment or nearness to the bait. Other partners may have been found. Tags and fused reporters may be left off the sequences shown.

In the case of “Lox (found in the HA-Meflin immunoprecipitate from mouse MSCs) (from UniProt P28301) (enzyme)”, the binding result is reported as “binds”.
